Article doi:10.1101/814533
Where two headings read alike, the source gives them in different places. Results are given in words; binding and its absence hold for the method and conditions named. In cells and extracts the contact can be indirect. Some binding calls cover weakened binding; strength is not graded here.

Chains of the proteins cited; added tags and fusions are not shown. Residues count along the entry.
UniProt P35441, residues 19-1170: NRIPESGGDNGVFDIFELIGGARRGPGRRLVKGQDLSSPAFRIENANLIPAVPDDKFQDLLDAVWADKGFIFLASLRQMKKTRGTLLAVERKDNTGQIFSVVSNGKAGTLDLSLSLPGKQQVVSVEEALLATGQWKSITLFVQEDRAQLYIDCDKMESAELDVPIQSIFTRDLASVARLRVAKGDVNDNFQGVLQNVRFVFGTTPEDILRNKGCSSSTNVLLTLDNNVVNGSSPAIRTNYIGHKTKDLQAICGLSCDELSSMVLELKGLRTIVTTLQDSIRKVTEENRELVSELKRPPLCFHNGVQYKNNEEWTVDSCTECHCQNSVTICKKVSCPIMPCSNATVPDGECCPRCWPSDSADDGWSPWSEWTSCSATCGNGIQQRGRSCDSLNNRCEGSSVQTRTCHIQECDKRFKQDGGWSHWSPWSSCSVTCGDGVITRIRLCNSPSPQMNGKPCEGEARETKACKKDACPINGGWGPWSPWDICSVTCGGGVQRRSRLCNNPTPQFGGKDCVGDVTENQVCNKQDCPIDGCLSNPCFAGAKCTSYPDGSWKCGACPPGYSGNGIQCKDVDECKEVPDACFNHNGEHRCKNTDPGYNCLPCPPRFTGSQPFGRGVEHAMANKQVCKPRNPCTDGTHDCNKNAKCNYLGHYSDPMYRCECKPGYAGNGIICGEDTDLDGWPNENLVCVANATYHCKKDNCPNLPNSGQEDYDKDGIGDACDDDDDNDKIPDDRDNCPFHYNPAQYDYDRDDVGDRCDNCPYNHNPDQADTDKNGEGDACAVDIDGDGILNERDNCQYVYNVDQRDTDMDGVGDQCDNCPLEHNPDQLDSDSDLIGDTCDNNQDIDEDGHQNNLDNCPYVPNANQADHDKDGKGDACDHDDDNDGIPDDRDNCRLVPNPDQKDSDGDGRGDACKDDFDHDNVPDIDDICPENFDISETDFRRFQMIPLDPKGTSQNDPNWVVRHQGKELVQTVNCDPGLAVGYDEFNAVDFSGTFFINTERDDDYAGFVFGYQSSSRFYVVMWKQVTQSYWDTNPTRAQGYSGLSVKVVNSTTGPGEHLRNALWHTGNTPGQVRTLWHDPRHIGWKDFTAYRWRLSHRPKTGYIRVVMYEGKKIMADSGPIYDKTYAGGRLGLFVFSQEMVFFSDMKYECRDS
UniProt P09055, residues 21-798: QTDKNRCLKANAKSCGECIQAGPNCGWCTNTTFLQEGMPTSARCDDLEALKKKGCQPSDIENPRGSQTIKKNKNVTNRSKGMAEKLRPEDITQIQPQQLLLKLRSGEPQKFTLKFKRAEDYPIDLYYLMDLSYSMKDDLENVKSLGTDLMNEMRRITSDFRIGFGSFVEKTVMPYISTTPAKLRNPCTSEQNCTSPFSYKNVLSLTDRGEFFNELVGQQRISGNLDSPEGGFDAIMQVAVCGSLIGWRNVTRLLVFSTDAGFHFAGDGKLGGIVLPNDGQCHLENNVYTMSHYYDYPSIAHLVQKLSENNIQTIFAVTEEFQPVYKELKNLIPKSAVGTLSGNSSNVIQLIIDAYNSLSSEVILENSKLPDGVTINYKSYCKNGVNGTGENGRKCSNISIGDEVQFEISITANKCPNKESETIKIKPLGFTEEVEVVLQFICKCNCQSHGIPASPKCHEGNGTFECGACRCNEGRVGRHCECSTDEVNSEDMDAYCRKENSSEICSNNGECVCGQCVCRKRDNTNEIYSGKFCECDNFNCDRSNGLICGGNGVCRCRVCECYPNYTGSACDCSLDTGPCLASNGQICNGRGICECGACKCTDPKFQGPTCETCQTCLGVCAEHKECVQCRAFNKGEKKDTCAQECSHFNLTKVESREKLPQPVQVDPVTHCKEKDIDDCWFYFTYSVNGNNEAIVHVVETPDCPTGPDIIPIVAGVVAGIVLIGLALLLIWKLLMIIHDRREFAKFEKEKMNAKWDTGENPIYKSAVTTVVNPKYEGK

Columns and labels:
[1] = target: thrombospondin-1 (Thbs1), mouse (mouse (endogenous in C57BL/6J arteries)) (UniProt P35441); test: proximity ligation
[2] = target: thrombospondin-1 (Thbs1), mouse (mouse (endogenous in C57BL/6J arteries)) (UniProt P35441); test: proximity ligation; remark: listed apart in the source

- binding [1]: binds
- binding [2]: binds
Substance: integrin β1, mouse (from UniProt P09055 21-798) (receptor)
